From patent publication US20180037611A1
No constants are given. Whether binding was seen depends on the method and setting.

Target: recombinant soluble DENV envelope protein (standard ELISA) (dengue virus (serotype not given))
Test: standard ELISA on recombinant sE

B1: 747(4)A11 (antibody, V domains shown)
VH: EVQLVESGGGLVRPGGSLRLSCAASGFSYSNHWMHWVRQAPGKGLVWVSRINSDGSTRNYADFVKGRFTISRDNAENTLYLEMNSLTADDTAVYYCVRDGVRFYYDSTGYYPDSFFKYGMDVWGQGTTVTV
VL: QSVLTQPASVSGSPGQSITISCTGTSSNADTYNLVSWYQQRPGKAPKLMIYEGTKRPSGVSNRFSASKSATAASLTISGLQPEDEADYYCCSYATSRTLVFGGGTKLTVV
For B1, the binding was “no binding”.
